# In article PMC10329633, “Molecular basis and design principles of switchable front-rear polarity and directional migration in Myxococcus xanthus” (Nature Communications, 2023):
# No constants are given. Whether binding was seen depends on the method and setting. For part of these data: Binding can be weak; no strength is given. Where a sequence is shown, tags or fusion partners need not be part of it.
# T1: His6-MglB (Myxococcus xanthus) (UniProt Q1DB03)
# T1 sequence: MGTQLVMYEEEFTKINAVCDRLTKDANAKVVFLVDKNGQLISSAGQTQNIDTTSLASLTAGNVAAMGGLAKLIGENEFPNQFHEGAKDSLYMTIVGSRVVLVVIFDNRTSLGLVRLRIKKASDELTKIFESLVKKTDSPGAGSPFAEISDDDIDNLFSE
# B1: His6-MglB (natural protein, Myxococcus xanthus)
# chain: T1 sequence
# notes: also called MglB-His6; MglB^WT; source: E. coli Rosetta 2(DE3), purified (Ni-NTA, Superdex 75 gel filtration); not shown: His6, N-terminal, kept
# B2: MglA-His6 (protein, UniProt Q1DB04 1-195)
# chain: MSFINYSSREINCKIVYYGPGLCGKTTNLQYIYNKTAAETKGKLISLSTETDRTLFFDFLPLSLGEIRGFKTRFHLYTVPGQVFYDASRKLILKGVDGVVFVADSQIERMEANMESLENLRINLAEQGYDLNKIPYVIQYNKRDLPNAVTVEEMRKALNHRNIPEYQAVAPTGVGVFDTLKAVAKLVLTELKKGG
# Experiments:
# [1] = target: T1, His6-MglB (Myxococcus xanthus); assay: pull-down; His6-MglB or His6-MglB^KRK as bait on nickel magnetic beads, pairwise; proteins 10 µM each, buffer 1, washes with 50 mM imidazole, RT; both purified
# [2] = target: T1, His6-MglB (Myxococcus xanthus); assay: pull-down; His6-MglB as bait on nickel magnetic beads, all three proteins (His6-MglB, Strep-MglC, MalE-RomR) present; 10 µM each, buffer 1, washes with 50 mM imidazole, RT; both purified
# [3] = target: Strep-MglC (Myxococcus xanthus); assay: condition: only with MglA-His6 loaded with GppNHp (10 µM); pull-down; Strep-MglC as bait on Strep-Tactin beads; 40 µM GppNHp in all buffers; without or with MglA-His6 preincubated with GppNHp; proteins 10 µM; MglB detected by immunoblot with α-MglB; both purified
# [4] = target: Strep-MglC (Myxococcus xanthus); assay: pull-down; Strep-MglC as bait on Strep-Tactin beads; 40 µM GppNHp in all buffers; without or with MglA-His6 preincubated with GppNHp; proteins 10 µM; MglB detected by immunoblot with α-MglB; both purified
# [5] = target: Strep-MglC (Myxococcus xanthus); assay: pull-down; Strep-MglC as bait on Strep-Tactin MagStrep type3 XT beads, pairwise; proteins 10 µM each, buffer 1 (50 mM Tris-HCl pH 7.5, 150 mM NaCl, 1 mM DTT, 5 mM MgCl2, 5% glycerol), RT; MglA-His6 preloaded with GTP and 40 µM GTP in all buffers; Coomassie-stained SDS-PAGE; both purified
# [6] = target: Strep-MglC (Myxococcus xanthus); assay: pull-down; Strep-MglC as bait on Strep-Tactin beads; 40 µM GDP in all buffers; without or with MglA-His6 preincubated with GDP; proteins 10 µM; MglB detected by immunoblot with α-MglB; both purified
Molecule,binding [1],binding [2],binding [3],binding [4],binding [5],binding [6]
Strep-MglC (Myxococcus xanthus),binds,binds,,,,
B1,,,no binding,binds,binds,binds
B2,,,,no binding (tested: 10 µM),no binding (tested: 10 µM),no binding (tested: 10 µM)
